In the supplement of paper PMC7024190:
The list shows a part of the results. Single values are uncertain here, since repeats match poorly.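 The cells were human embryonic kidney cells carrying a Renilla luciferase gene, driven by the HSV-TK promoter, on a plasmid put in briefly by transfection. This is the first-round screen of about ten thousand compounds, looking for ones that raise reporter output.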

These compounds were tested on HEK 293FT (assay: log relative Renilla luciferase luminescence (reporter expression vs reference, reference not stated) (log (base not stated)); higher = higher recombinant reporter expression). Details: 10 µM; time after transfection 48 h.
`CC(=O)Nc1ccc(CC(=O)O)cc1` gave a log of -0.0135.
`CC1(C)C[C@@H]1C(=O)N/C(=C\CCCCSC[C@H](N)C(=O)O)C(=O)O` showed a log of -0.128.
`CC(C)c1ccc2oc3nc(N)c(C(=O)O)cc3c(=O)c2c1` gave a log of -0.126.
For `Oc1ccc(C2CNCCc3c2cc(O)c(O)c3Cl)cc1` (stereo not given), the log was -0.0676.
Work on `O=[N+]([O-])c1cccc2cn[nH]c12` yielded a log of 0.155.
Compound `NC(=O)c1cccnc1` has a log of -0.0247.
For `CC(C)(C)C(O)/C=C/c1ccc2c(c1)OCO2` (stereo not given) [Stiripentol], the log was 0.0127.
`O=c1n(CCCN2CCN(c3cccc(Cl)c3)CC2)nc2ccccn12` showed a log of 0.106.
In the case of `CC1(C)O[C@@H]2[C@@H](CO[C@@]3(COS(N)(=O)=O)OC(C)(C)O[C@@H]23)O1`, the log is reported as -0.0361.
For `CN(C/C=C/C#CC(C)(C)C)Cc1cccc2ccccc12`, the log was -0.0986.
In the case of `CC(=O)SCC(Cc1ccccc1)C(=O)NCC(=O)OCc1ccccc1` (stereo not given), the log is reported as 0.156.
For `CC(COc1ccccc1Cc1ccccc1)N1CCCCC1` (stereo not given), the log was -0.0336.
Work on `C=C1/C(=C\C=C2/CCC[C@]3(C)[C@@H]([C@H](C)CCCC(C)(C)O)CC[C@@H]23)C[C@@H](O)C[C@@H]1O` yielded a log of -0.199.
`O=c1c(O[C@@H]2O[C@H](CO)[C@H](O)[C@H](O)[C@H]2O)c(-c2ccc(O)c(O)c2)oc2cc(O)cc(O)c12` was tested, and the log was -0.176.
With `CN=C(N)NCCC[C@H](N)C(=O)O` [L-Ornithine, N5-[imino(methylamino)methyl]-[CAS]] the log was 0.14.
Compound `N[C@@H](C(=O)N[C@@H]1C(=O)N2C(C(=O)O)=C(Cl)CS[C@H]12)c1ccccc1` has a log of 0.0439.
Compound `CN1CCN2c3ncccc3Cc3ccccc3C2C1` (stereo not given) has a log of -0.253.
`CCOC(=O)c1ccc(OC(=O)CCCCCNC(=N)N)cc1` showed a log of -0.089.
`O=C(O)Cc1ccccc1Nc1c(Cl)cccc1Cl` gave a log of 0.245.
Compound `CCCc1nc(C)c2c(=O)nc(-c3cc(S(=O)(=O)N4CCN(CC)CC4)ccc3OCC)[nH]n12` has a log of 0.143.
For `CC(N/C(=N\C#N)Nc1ccncc1)C(C)(C)C` (stereo not given) [Pinacidil monohydrate], the log was 0.111.
For `CC1CCN(CCCC(=O)c2ccc(F)cc2)CC1` [Metylperon], the log was 0.0941.
Work on `Fc1ccc([C@@H]2CCNC[C@H]2COc2ccc3c(c2)OCO3)cc1` [Paroxetine] yielded a log of -0.0129.
`CN(C)CCOC(C)(c1ccccc1)c1ccccn1` (stereo not given) gave a log of -0.125.
`Cn1c(NCCN(CCO)CCCc2ccc([N+](=O)[O-])cc2)cc(=O)n(C)c1=O` was tested, and the log was -0.0854.
In the case of `CN(C)CCOC(c1ccccc1)c1ccccc1`, the log is reported as 0.126.
Compound `COc1cc2nc(N3CCN(C(=O)C4CCCO4)CC3)nc(N)c2cc1OC` (stereo not given) [Terazosin] has a log of 0.192.
`COCc1c(C(C)C)nc(C(C)C)c(/C=C/[C@@H](O)C[C@@H](O)CC(=O)O)c1-c1ccc(F)cc1` gave a log of -0.165.
`CCOC(=O)OC(C)OC1=C(C(=O)Nc2ccccn2)N(C)S(=O)(=O)c2ccccc21` (stereo not given) showed a log of 0.0965.
With `COC(=O)Nc1nc2cc(C(=O)c3ccc(F)cc3)ccc2[nH]1` the log was 0.00632.
`Cc1c(O)cccc1C(=O)N[C@@H](CSc1ccccc1)[C@H](O)CN1C[C@H]2CCCC[C@H]2C[C@H]1C(=O)NC(C)(C)C` gave a log of -0.00677.
`CCOC(=O)C1=C(C)NC(C)=C(C(=O)OCC)C1c1ccccc1/C=C/C(=O)OC(C)(C)C` showed a log of -0.702.
`COc1ccc(-c2cc(=O)c3c(OC)c(OC)c(OC)c(OC)c3o2)cc1OC` [Nobiletin] was tested, and the log was -0.058.
`CN1CCN(CCCN2c3ccccc3Sc3ccc(Cl)cc32)CC1` was tested, and the log was -0.123.
Compound `COc1ccc(CN2CCN(C(c3ccc(F)cc3)c3ccc(F)cc3)CC2)c(OC)c1OC` has a log of -0.212.
In the case of `CCN(CC)CC(=O)Nc1c(C)cccc1C`, the log is reported as 0.0139.
With `O=C1N[C@H](C(=O)O)CS1` [4-Thiazolidinecarboxylic acid, 2-oxo-, (R)- [CAS]] the log was 0.179.
`CN1CCN(c2nc3cc(C(F)(F)F)ccc3n3cccc23)CC1` was tested, and the log was 0.104.
`CC(C)C[C@H](NC(=O)[C@@H](COC(C)(C)C)NC(=O)[C@H](Cc1ccc(O)cc1)NC(=O)[C@H](CO)NC(=O)[C@H](Cc1c[nH]c2ccccc12)NC(=O)[C@H](Cc1cnc[nH]1)NC(=O)[C@@H]1CCC(=O)N1)C(=O)N[C@@H](CCCNC(=N)N)C(=O)N1CCC[C@H]1C(=O)NNC(N)=O` was tested, and the log was 0.00866.
Compound `Nc1ncnc2c1ncn2[C@@H]1O[C@H](CO)C[C@@H]1O` [3'-deoxydenosine] has a log of 0.229.
